Results on three molecules are retold here after patent US20200148767A1.

For test [1], the target named is CD33^ΔE3-4, artificial CD33 molecule that contains only the V-set domain. Briefly: binding to cells displaying CD33^ΔE3-4.
In test [2] the target is hybrid protein: signal peptide of CD33^FL fused to CD33^ΔE2 (FL SP on CD33^ΔE2) (human). Briefly: binding to REH cells expressing hybrid CD33 proteins.
For test [3] the target is unchanged. Briefly: flow cytometry on REH cells expressing FL SP on CD33ΔE2, goat anti-mouse APC secondary antibody. In general terms: In flow cytometry, cells or beads pass a laser one at a time.
The target of test [4] is extracellular domain of CD33^ΔE2 with a 6-histidine-avidin tag (hsCD33_ΔE2-His-Avi) (human). Briefly: SPR (Biacore), antibody captured, soluble ectodomain MDT-239 as analyte.

Changes are numbered by the printed parent chain. These are yes or no findings as the source states them, for the method shown. For some of these results: Binding calls can cover weak binding; strength is not graded here.

B1: anti-CD33 antibody 1H7 (antibody, mouse IgG2a, kappa, V domains shown)
VH: QVQLQQSGAELVKPGASVKISCKASGYAFSNYWMNWVKQRPGKGLEWIGQINPGDGDTNYNGKFKGKATLTADKSSSTAYMQLSSLTSEDSAVYFCAREDRDYFDYWGQGTTLTVSS
VL: DIQMTQTTSSLSASLGDRVTISCRASQDINYYLNWYQQKPDGTVKLLIYYSSRLHSGVPSRFSGSGSGTDFSLTISNLEQEDIATYFCQQDDALPYTFGGGTKLEIKR
For B1, the binding result in test [1] is on record as “no binding”.

B2: anti-CD33 antibody 11D5 (antibody, V domains shown)
VH: EVQFQQSETVLARPGTSVKLSCKASGYTFTSYWMHWLKQRPGQGLEWIGAIYCGNSDTSYNQKFKGKAKLTAVTSATTAYMELSSLTNEDSAVYYCKIYDGYHFDYWGQGTTLTVSS
VL: DIVMTQAAFSNPVTLGTSASISCRSNKSLLHSNGITYLYWYLQKPGQSPQLLIYQMSNLASGVPDRFSSSGSGTDFTLRISRVEAEDVGVYYCAQNLELPPTFGGGTKLEIKR
Turning to B2, the binding entry in test [2] and in test [3] was “binds” each time.

B3: anti-CD33 antibody 12B12 (antibody, V domains shown)
VH: EVQLQQSGTVLARPGASVKMSCKASGYTFTTYWMHWIKQSPGQGLEWIGAIYPGNSDTSYNQKFKGKAKLTAVTSASTAYMELSSLTNEDSAVYYCEIYDGYHFIYWGQGTTLTVSS
VL: B2 VL with N26S, K27Q
Regarding B3, the binding entry in test [4] was “binds”.
